Data reported in patent publication US20230242902A1, “A HIGHLY ERROR-PRONE […] R[…] FOR TARGETED CONTINUOUS EVOLUTION IN VIVO” (The Regents of the University of California, priority 2017, published 2023).
Substitutions are numbered along the chain they refer to. Names and notes keep the numbering of the source. Values joined by “and” are separate entries in the source; they are usually repeats but may differ in a detail not shown here. Equal values may be shown once.

B1: I777K: TP-DNAP1 variant, encoded by SEQ ID NO:3 (protein)
chain: MDYKDKALNDLRNVYADFDSLPLDFRQILIKDRATLLQKEDVEKKILERQEDAKKYAEYLKQSEIPERISLPNIKRHKGVSISFEETSEDMVLEPRPFIFDGLNIRCFRRETIFSLKNKILNMVKESSSFKNVSRQSVSFMYFKIFNKGKVIASTKSVNIYEDKIDERLEDLCNNFDDVLKKIIDVTYGYESLFVSETYSYVIFYAKSIYFPQPRCVNNWGNNIPNILTFDSFKLFTANKNNVSCIKQCSRFLWQKDFNTLEEMIEYKNGNICIVTPQLHINDVRDIKSFNDIRLYSESPIKTFSVIDNTITYLFYFKEHLGVIFNITKSRHDRRVTKFSPLSKFSDVKNITVCFDIESYFDPEKESNQVNIPFICCASIIYNKVIGNIVDFEGRDCVAQMIEYVVDICGELNISSVELIAHNGGGYDFHYILSSMYNPAAIKNILIRNNSFISFNFAHDGVKFSVKDSYSFLLCSLANASKAFLNEETFKKTDFPHHDLKTADDLYKVYKEWSSVNTEINHVVEKEKLLITSEHIVNFTKNDKSKTLIEWSKDYCRNDVLVLSKVWLEFKNAVEDIFNCELVDQTMTLAGLSYKLFQANMPFDVELRHPNKEDYFNMREALIGGRCISVNGIYKDVLCLDVKSLYPASMAFYDQPYGSFKRVSSRPKDELGIYYVRVTPNRNNKSNFFPIRSHNKITYNNFEESTYIAWYTNVDIDIGLSEGHNIEYIPFDSYGNIGYSWSKKGKIFEKYIKDVLYKLKIKYEKQNNKVKRNVIKKIMNSLWGKFAQKWVNFEYFIKSEDDIDFESEEAYKIWDTDFMLIKKIKESTYSSKPIQNGVFTLSWARYHMKSIWDAGAKEGAECIYSDTDSIFVHKEHFKKNAKFMLNGLKVPIIGSEVGQLELECEFDKLLCAGKKQYMGFYTYFQDGKPCIKEKKRFKGIPSNYIIPELYAHLLSGADKEAKIQFLKFRREWGSVKGYIENKTVKAT
B2: I777K, L900S: TP-DNAP1 variant, encoded by SEQ ID NO:7 (protein, listed as Kluyveromyces lactis)
chain: B1 chain with L900S
B3: L474W, L640Y, I777K, W814N: TP-DNAP1 variant, encoded by SEQ ID NO:9 (protein, listed as Kluyveromyces lactis)
chain: B1 chain with L474W, L640Y, W814N
B4: TP-DNAP1-4-2: TP-DNAP1 variant (L477V, L640Y, I777K, W814N), encoded by SEQ ID NO:11 (protein, listed as Kluyveromyces lactis)
chain: B1 chain with L477V, L640Y, W814N
B5: w.t.: wild-type Kluyveromyces lactis DNA polymerase TP-DNAP1, SEQ ID NO:1 (protein, listed as Kluyveromyces lactis)
chain: B1 chain with K777I

Tested on: p1
Assay: p1 copy number by p1-encoded mKate2 fluorescence
Format: cell-based, S. cerevisiae
Settings: p1-encoded mKate2, flow cytometry, OR-Y24 strains, calibration curve
Method: A calibration curve was established to correlate p1 copy number, determined via quantitative PCR (qPCR), with fluorescence of p1-encoded mKate2 (Table 1). Five TP-DNAP1 variants representing a wide range of copy numbers were transformed into ORY24 and passaged until w.t. p1 was displaced. The five OR-Y24 strains were grown to saturation, diluted 1:10,000 to mimic p1 fluctuation tests, and grown in triplicate 100 μL cultures and duplicate 40 mL cultures. 100 μL saturated cultures were subject to fluorescence measurement of mKate2 (ex/em=561 nm/620 nm, bandwidth=15 nm) on a flow cytometer (Invitrogen Attune NxT). Whole-cell DNA extracts were prepared from 40 mL cultures and used as templates for qPCR measurement of p1-encoded leu2 (Q180*), as described previously (Ravikumar et al., 2014). p1-encoded LEU2 was PCR amplified with qPCR-Leu2F and qPCR Leu2R; and genomic LEU3 was PCR amplified with qPCR-Leu3F and qPCR-Leu3R using SyBR Green (Fisher Scientific) master mix.
To assay p1 copy number for large-scale p1 fluctuation tests, additional replicates of OR-Y24 strains were grown from the 1:10,000 dilution in triplicate and saturated cultures were subject to fluorescence measurement via flow cytometry. Fluorescence measurements were converted to copy number with the linear calibration curve.
To assay relative p1 copy number for small-scale p1 fluctuation tests, an additional 200 μL culture of OR-Y24 strains were grown from the 1:10,000 dilution. 200 μL saturated cultures were subject to an OD600 measurement and fluorescence measurement of mKate2 (ex/em=588 nm/633 nm), using a microplate reader (TECAN Infinite M200 PRO). A linear relationship was assumed between p1 copy number and OD600-normalized mKate2 fluorescence. Copy numbers were calculated from normalization to a w.t. TP-DNAP1 control.
For a few large-scale p1 fluctuation tests, p1 copy number was assayed by the method of small scale p1 fluctuation tests (i.e. microplate reader measurement). For these experiments, mutant TP-DNAP1 p1 copy numbers were calculated by normalization to a w.t. TP-DNAP1 control. The copy number of this control was assumed to be the average w.t. TP-DNAP1 copy number from all large-scale p1 fluctuation tests that used flow cytometry measurements.
TP-DNAP1 plasmids were isolated from these strains and subject to Sanger sequencing. 210 unique variants were identified and the corresponding plasmids were re-transformed into OR-Y24. Transformed strains were passaged in SC-UH until w.t. p1 was displaced, and subject to p1 copy number measurement in triplicate. Four high copy variants were directly subject to qPCR measurements for validation. To test the suppressor activity of the G410H mutation, which yields increased p1 copy number, this amino acid change was added to several low-activity TP-DNAP1 variants. p1 copy number was similarly assayed for these strains.

| Molecule | mKate2 fluorescence (a.u.) | other results |
| --- | --- | --- |
| B1 | 1064.79 a.u. and 1192.83 a.u. |  |
| B2 | 601.91 a.u. and 617.55 a.u. |  |
| B3 |  | mKate2 fluorescence (a.u.) (L640Y, I777K): 298.97 a.u. and 180.05 a.u. |
| B4 |  | mKate2 fluorescence (a.u.) (L640Y, I777K, W614N): 288.24 a.u. and 233.35 a.u. |
| B5 | 1455.5 a.u. and 1650.14 a.u. |  |
